From PubChem BioAssay AID248 (DTP/NCI, 2004) come the findings set out here.

The subject of this assay is L1210 leukemia ip in BDF1 mice, survival T/C. The assay is described as follows: NCI In Vivo Anticancer Drug Screen. Data for tumor model L1210 Leukemia (intraperitoneal) in B6D2F1 (BDF1) mice. Particulars: T/C endpoint: mean survival time, higher T/C = longer survival.
[1] abbreviates: dose: 400.0 mg/kg/injection, schedule: Q01DX001 (ip), vehicle: saline.

The list does not hold the whole screen: it is rich in T/C values a quarter to a half above the control, in often repeated tests (any T/C) and in doses without a T/C. Other doses and runs of a compound stand elsewhere. T/C: endpoint of the treated group in % of that of the vehicle group. Some doses have a count of surviving animals in place of a T/C: the source holds a T/C of zero for them, seemingly a mark for toxic or unscored doses. Some survivor counts are full or nearly so, which does not show that the dose was tolerated: the source hardly ever lists a survival T/C far under the control, and the zero likely stands for such cases as well. Counts of survivors are from the toxicity check (mostly the fifth day) where no day follows; animals may have died later. Schedule codes are those of the source, read here as Q, the interval in days (D) or hours (H), X, the number of doses. Some schedule codes hold Z or #, which are not explained here. For survival time, the PubChem record calls one and a half times the control and up active, and a quarter to a half above the control has no call in these data; cut-offs in other NCI protocols can differ.

In the case of `O=NN(CCCl)C(=O)Nc1ccc2oc(=O)c3ccccc3c2c1`, the T/C reads like this: (dose: 10.0 mg/kg/injection, schedule: Q01DX001 (ip), vehicle: carboxymethylcellulose (CMC)) 126 % of control; (dose: 20.0 mg/kg/injection, schedule: Q01DX001 (ip), vehicle: carboxymethylcellulose (CMC), evaluated on day 30) 148 % of control; (dose: 20.0 mg/kg/injection, schedule: Q01DX001 (ip), vehicle: carboxymethylcellulose (CMC), run until all animals had died) 141 % of control; (dose: 35.0 mg/kg/injection, schedule: Q01DX001 (ip), vehicle: carboxymethylcellulose (CMC)) 131 % of control; (dose: 40.0 mg/kg/injection, schedule: Q01DX001 (ip), vehicle: carboxymethylcellulose (CMC)) 131 % of control; (dose: 53.0 mg/kg/injection, schedule: Q01DX001 (ip), vehicle: carboxymethylcellulose (CMC)) 140 % of control. Moreover, the T/C was 136 % of control (dose: 75.0 mg/kg/injection, schedule: Q01DX001 (ip), vehicle: carboxymethylcellulose (CMC)); 138 % of control (dose: 80.0 mg/kg/injection, schedule: Q01DX001 (ip), vehicle: carboxymethylcellulose (CMC)); 135 % of control (dose: 120.0 mg/kg/injection, schedule: Q01DX001 (ip), vehicle: carboxymethylcellulose (CMC)); 128 % of control (dose: 177.0 mg/kg/injection, schedule: Q01DX001 (ip), vehicle: carboxymethylcellulose (CMC), evaluated on day 30); 144 % of control (dose: 177.0 mg/kg/injection, schedule: Q01DX001 (ip), vehicle: carboxymethylcellulose (CMC), run until all animals had died); 134 % of control (dose: 266.0 mg/kg/injection, schedule: Q01DX001 (ip), vehicle: carboxymethylcellulose (CMC), evaluated on day 30). For the same molecule, the T/C runs as follows: (dose: 266.0 mg/kg/injection, schedule: Q01DX001 (ip), vehicle: carboxymethylcellulose (CMC), run until all animals had died) 148 % of control; (dose: 400.0 mg/kg/injection, schedule: Q01DX001 (ip), vehicle: carboxymethylcellulose (CMC), evaluated on day 30) 126 % of control; (dose: 400.0 mg/kg/injection, schedule: Q01DX001 (ip), vehicle: carboxymethylcellulose (CMC), run until all animals had died) 143 % of control; (dose: 600.0 mg/kg/injection, schedule: Q01DX001 (ip), vehicle: carboxymethylcellulose (CMC)) 148 % of control.
As to `O=C(C#Cc1ccccc1)N1CCCCC1`, the T/C (dose: 100.0 mg/kg/injection, schedule: Q04DX002 (ip), vehicle: saline with Tween-80) is 134 % of control.
As for `O=C1CC2OCC=C3C[N+]4(SS(=O)(=O)[O-])CCC56c7ccccc7N1C5C2C3CC64` (stereo unspecified), the survivor count (dose: 2.1 mg/kg/injection, schedule: Q01DX009 (ip), vehicle: saline) is on record as 1 of 6; the survivor count (dose: 2.5 mg/kg/injection, schedule: Q01DX001 (ip), vehicle: saline) is 0 of 6; the survivor count (dose: 5.0 mg/kg/injection, schedule: Q01DX001 (ip), vehicle: saline) is on record as 0 of 6; the survivor count (dose: 10.0 mg/kg/injection, schedule: Q01DX001 (ip), vehicle: saline) is given as 0 of 6; the survivor count (dose: 20.0 mg/kg/injection, schedule: Q01DX001 (ip), vehicle: saline) was 0 of 6; the survivor count (dose: 40.0 mg/kg/injection, schedule: Q01DX001 (ip), vehicle: saline) is recorded as 0 of 6. The survivor count by setting is: (dose: 75.0 mg/kg/injection, schedule: Q01DX001 (ip), vehicle: saline) 0 of 6; (dose: 150.0 mg/kg/injection, schedule: Q01DX001 (ip), vehicle: saline) 0 of 6; (dose: 300.0 mg/kg/injection, schedule: Q01DX001 (ip), vehicle: saline) 0 of 6.
`CCN(CCCl)c1ccc(/C=C/C2=[N+](C)c3ccccc3C2(C)C)c(C)c1`: the survivor count runs as follows: (dose: 3.13 mg/kg/injection, schedule: Q01DX009 (ip), vehicle: saline) 3 of 6; (dose: 6.25 mg/kg/injection, schedule: Q01DX009 (ip), vehicle: saline) 0 of 6; (dose: 12.5 mg/kg/injection, schedule: Q01DX009 (ip), vehicle: saline) 5 of 6; (dose: 25.0 mg/kg/injection, schedule: Q04DX003 (ip), vehicle: saline) 4 of 6; (dose: 100.0 mg/kg/injection, schedule: Q04DX003 (ip), vehicle: saline) 0 of 6; (dose: 200.0 mg/kg/injection, schedule: Q04DX003 (ip), vehicle: saline) 0 of 6. Further, the survivor count (dose: 400.0 mg/kg/injection, schedule: Q04DX003 (ip), vehicle: saline) is 0 of 6.
In the case of `C=CC[N+](C)(CC=C)CC[N+](C)(CC=C)CC=C`, the survivor count runs as follows: (dose: 200.0 mg/kg/injection, schedule: Q01DX009 (ip), vehicle: water) 2 of 6; (dose: 400.0 mg/kg/injection, schedule: Q04DX003 (ip), vehicle: water) 1 of 6.
For the molecule `CCN(CC)CCCNc1cc(Cl)c(Cl)cc1[N+](=O)[O-]`, the survivor count is 6 of 6 (dose: 100.0 mg/kg/injection, schedule: Q01DX009 (ip), vehicle: saline); 6 of 6 (dose: 200.0 mg/kg/injection, schedule: Q01DX009 (ip), vehicle: saline); 3 of 6 (dose: 400.0 mg/kg/injection, schedule: Q01DX009 (ip), vehicle: saline).
For `CS(=O)(=O)OCCNc1ccc([N+](=O)[O-])cc1`, the survivor count (dose: 128.0 mg/kg/injection, schedule: Q01DX015 (ip), vehicle: saline) was 4 of 6.
For `Cc1ccc(S(=O)(=O)N/N=C2\CC3(Cl)CCC2C3)cc1` (stereo unspecified), the survivor count (dose: 400.0 mg/kg/injection, schedule: Q01DX009 (ip), vehicle: saline with Tween-80) is 6 of 6.
For `Cn1c(=O)c2[nH]c(C3CCCC3)nc2n(C)c1=O`, the survivor count under setting [1] is given as 0 of 4.
As to `[O-]/[N+](=N/O)c1ccccc1`, the survivor count is given as 1 of 6 (dose: 200.0 mg/kg/injection, schedule: Q01DX001 (ip), vehicle: saline) and 0 of 6 under setting [1].
Consider `CCCCCCC[CH2][Sn](=[O])[CH2]CCCCCCC`, for which the survivor count (dose: 12.5 mg/kg/injection, schedule: Q01DX009 (ip), vehicle: saline with Tween-80) is on record as 5 of 6; the survivor count (dose: 25.0 mg/kg/injection, schedule: Q01DX009 (ip), vehicle: saline with Tween-80) was 6 of 6; the survivor count (dose: 50.0 mg/kg/injection, schedule: Q01DX009 (ip), vehicle: saline with Tween-80) was 1 of 6; the survivor count (dose: 100.0 mg/kg/injection, schedule: Q01DX009 (ip), vehicle: saline with Tween-80) is given as 0 of 6; the survivor count (dose: 200.0 mg/kg/injection, schedule: Q04DX003 (ip), vehicle: acetone) is given as 4 of 6; the survivor count (dose: 400.0 mg/kg/injection, schedule: Q04DX003 (ip), vehicle: acetone) is given as 0 of 6.
As to `CC(=O)N(C(=O)c1ccccc1)c1ccc(NS(=O)(=O)c2ccc(C)cc2)cc1`, where the note is “dose: 200.0 mg/kg/injection, schedule: Q04DX003 (ip), vehicle: Klucel (hydroxypropylcellulose) (HPC)”, the survivor count was 6 of 6.
As to `Cc1ccc(C)c(/C(=N\N=C(N)N)C2CC2)c1`, the survivor count runs as follows: (dose: 120.0 mg/kg/injection, schedule: Q01DX Z (ip), vehicle: methylcellulose (MC)) 2 of 6; (dose: 240.0 mg/kg/injection, schedule: Q01DX Z (oral), vehicle: methylcellulose (MC)) 4 of 6.
`NC(=O)c1cn[nH]c1N`: the survivor count (dose: 200.0 mg/kg/injection, schedule: Q01DX009 (ip), vehicle: Klucel (hydroxypropylcellulose) (HPC)) is listed as 6 of 6.
With `O=C1C(c2c[nH]c3ccc(Br)cc23)=Nc2ccc([N+](=O)[O-])cc21`, the survivor count (dose: 100.0 mg/kg/injection, schedule: Q01DX001 (ip), vehicle: saline) is 4 of 4.
Take `Cc1ccc(S(=O)(=O)ON/N=C2\C(=O)C3CCC2C3)cc1` (stereo unspecified): the survivor count by setting is: (dose: 200.0 mg/kg/injection, schedule: Q04DX002 (ip), vehicle: saline with Tween-80) 3 of 3; (dose: 400.0 mg/kg/injection, schedule: Q04DX002 (ip), vehicle: saline with Tween-80) 3 of 3.
